Data source: PubChem BioAssay AID1117269 (University of Michigan, 2014)
Here is a random part of 714 deposited reagents. Of all reagents, 49 (6.9%) got an active call. 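Active means a hit in at least one line; per-line hit columns show which; some siRNA pools appear more than once.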 A reagent listed more than once was tested more than once; the source does not tell the runs apart. No sequences are given here. Not given: the amount of reagent.

- Screen: 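Which kinase knockdowns increase BTR reporter light after TGF-beta stimulation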 (primary screen)
- Cells: human A549 lung cancer and 1833 breast cancer (MDA-MB-231-derived) cell lines carrying a stable BTR luciferase reporter
- Knock-down reagent: siRNA pool against human genes
- Time to read-out: 72 h after transfection, then 1 h TGF-beta before the read
- Treatment: TGF-beta 10 ng/mL added one hour before luciferin and read-out
- Read-out: 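Live-cell BTR luciferase signal at 72 h after transfection and 1 h of TGF-beta at 10 ng/mL, fold versus scrambled siRNA, triplicate mean for each line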
- Reading the numbers: fold over scrambled siRNA, A549 and fold over scrambled siRNA, 1833: higher = more reporter light, weaker TGF-beta receptor signalling
- Active means: 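Hit in either line counts as active; per-line hits lie above an upper limit from quartiles of averaged log fold values, in plate and screen-wide analyses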
- Calls: active = hit in at least one line; inactive = hit in neither line

| gene knocked down | fold over scrambled siRNA, A549 | fold over scrambled siRNA, 1833 | hit in A549 | hit in 1833 | activity call |
| --- | --- | --- | --- | --- | --- |
| PRKAG3 (protein kinase AMP-activated non-catalytic subunit gamma 3) | 3.43 | 6.22 | not a hit in A549 | not a hit in 1833 | inactive |
| SIK3 (SIK family kinase 3) | 2.45 | 1.29 | not a hit in A549 | not a hit in 1833 | inactive |
| FER (FER tyrosine kinase) | 4.33 | 7.39 | not a hit in A549 | not a hit in 1833 | inactive |
| PAPSS2 (3'-phosphoadenosine 5'-phosphosulfate synthase 2) | 2.96 | 1.6 | not a hit in A549 | not a hit in 1833 | inactive |
| CAMK4 (calcium/calmodulin dependent protein kinase IV) | 3.65 | 3.22 | not a hit in A549 | not a hit in 1833 | inactive |
| SMG1 | 3.81 | 6.9 | not a hit in A549 | not a hit in 1833 | inactive |
| AK5 (adenylate kinase 5) | 0.967 | 5.78 | not a hit in A549 | not a hit in 1833 | inactive |
| MAP3K20 (mitogen-activated protein kinase kinase kinase 20) | 6.35 | 10.2 | hit in A549 | not a hit in 1833 | active |
| GUCY2C (guanylate cyclase 2C) | 18.2 | 1.96 | hit in A549 | not a hit in 1833 | active |
| CDK11B (cyclin dependent kinase 11B) | 1.43 | 2.87 | not a hit in A549 | not a hit in 1833 | inactive |
| PRPS2 (phosphoribosyl pyrophosphate synthetase 2) | 1.05 | 2.96 | not a hit in A549 | not a hit in 1833 | inactive |
| IRAK4 (interleukin 1 receptor associated kinase 4) | 2.91 | 2.27 | not a hit in A549 | not a hit in 1833 | inactive |
| IP6K1 (inositol hexakisphosphate kinase 1) | 1.17 | 2.39 | not a hit in A549 | not a hit in 1833 | inactive |
| RIPK1 (receptor interacting serine/threonine kinase 1) | 2.3 | 2.67 | not a hit in A549 | not a hit in 1833 | inactive |
| KSR1 (kinase suppressor of ras 1) | 3.52 | 5.63 | not a hit in A549 | not a hit in 1833 | inactive |
| MAP2K2 (mitogen-activated protein kinase kinase 2) | 1.86 | 2.95 | not a hit in A549 | not a hit in 1833 | inactive |
| NME3 (NME/NM23 nucleoside diphosphate kinase 3) | 3.62 | 6.73 | not a hit in A549 | not a hit in 1833 | inactive |
| UHMK1 (U2AF homology motif kinase 1) | 2.47 | 6.29 | not a hit in A549 | not a hit in 1833 | inactive |
| MAK (male germ cell associated kinase) | 5.33 | 6.81 | not a hit in A549 | not a hit in 1833 | inactive |
| ULK3 (unc-51 like kinase 3) | 1 | 1.93 | not a hit in A549 | not a hit in 1833 | inactive |
| ALDH18A1 (aldehyde dehydrogenase 18 family member A1) | 1.05 | 1.6 | not a hit in A549 | not a hit in 1833 | inactive |
| MYO3B (myosin IIIB) | 2.86 | 3.7 | not a hit in A549 | not a hit in 1833 | inactive |
| FLT4 (fms related receptor tyrosine kinase 4) | 0.885 | 5.73 | not a hit in A549 | not a hit in 1833 | inactive |
| SGK2 (serum/glucocorticoid regulated kinase 2) | 3.53 | 3.07 | not a hit in A549 | not a hit in 1833 | inactive |
| RIPK3 (receptor interacting serine/threonine kinase 3) | 1.52 | 2.06 | not a hit in A549 | not a hit in 1833 | inactive |
| PLK4 (polo like kinase 4) | 1.56 | 2.48 | not a hit in A549 | not a hit in 1833 | inactive |
| MAP2K5 (mitogen-activated protein kinase kinase 5) | 2.63 | 2.59 | not a hit in A549 | not a hit in 1833 | inactive |
| PIK3C2B | 2.82 | 1.85 | not a hit in A549 | not a hit in 1833 | inactive |
| PDIK1L (PDLIM1 interacting kinase 1 like) | 3.01 | 1.29 | not a hit in A549 | not a hit in 1833 | inactive |
| NEK4 (NIMA related kinase 4) | 4.06 | 1.6 | not a hit in A549 | not a hit in 1833 | inactive |
| STRADB (STE20 related adaptor beta) | 3 | 9.23 | not a hit in A549 | not a hit in 1833 | inactive |
| PDK2 (pyruvate dehydrogenase kinase 2) | 2.44 | 2.47 | not a hit in A549 | not a hit in 1833 | inactive |
| ACVR1B (activin A receptor type 1B) | 2.01 | 1.93 | not a hit in A549 | not a hit in 1833 | inactive |
| TGFBR3 (transforming growth factor beta receptor 3) | 1.65 | 5.96 | not a hit in A549 | not a hit in 1833 | inactive |
| STK40 (serine/threonine kinase 40) | 0.644 | 1.68 | not a hit in A549 | not a hit in 1833 | inactive |
| STK40 (serine/threonine kinase 40) | 1.05 | 2.48 | not a hit in A549 | not a hit in 1833 | inactive |
| TSSK1B (testis specific serine kinase 1B) | 3.69 | 1.1 | not a hit in A549 | not a hit in 1833 | inactive |
| TSSK1B (testis specific serine kinase 1B) | 3.08 | 1.88 | not a hit in A549 | not a hit in 1833 | inactive |
| DGKB (diacylglycerol kinase beta) | 2.22 | 2.33 | not a hit in A549 | not a hit in 1833 | inactive |

Records listed so far whose gene name starts with A or a:
| gene knocked down | fold over scrambled siRNA, A549 | fold over scrambled siRNA, 1833 | hit in A549 | hit in 1833 | activity call |
| --- | --- | --- | --- | --- | --- |
| AK5 (adenylate kinase 5) | 0.967 | 5.78 | not a hit in A549 | not a hit in 1833 | inactive |
| ALDH18A1 (aldehyde dehydrogenase 18 family member A1) | 1.05 | 1.6 | not a hit in A549 | not a hit in 1833 | inactive |
| ACVR1B (activin A receptor type 1B) | 2.01 | 1.93 | not a hit in A549 | not a hit in 1833 | inactive |
